Laboratory results taken from PMC9951332.
Results are given in words; binding and its absence hold for the method and conditions named. For some assays here: Binding seen in cells or lysates may run through a third protein. Some results given as binding are weak or reduced against the parent protein; the word gives no strength. For some assays here: Tags and fused reporters may be left off the sequences shown. Each block holds one binder with its values, some of them ahead of it.

Protein sequences, listed by entry. Tags and fused reporters are not part of them. Lines headed by an entry give the natural chain unless they say otherwise; changes in a name come on top.
UniProt P19474: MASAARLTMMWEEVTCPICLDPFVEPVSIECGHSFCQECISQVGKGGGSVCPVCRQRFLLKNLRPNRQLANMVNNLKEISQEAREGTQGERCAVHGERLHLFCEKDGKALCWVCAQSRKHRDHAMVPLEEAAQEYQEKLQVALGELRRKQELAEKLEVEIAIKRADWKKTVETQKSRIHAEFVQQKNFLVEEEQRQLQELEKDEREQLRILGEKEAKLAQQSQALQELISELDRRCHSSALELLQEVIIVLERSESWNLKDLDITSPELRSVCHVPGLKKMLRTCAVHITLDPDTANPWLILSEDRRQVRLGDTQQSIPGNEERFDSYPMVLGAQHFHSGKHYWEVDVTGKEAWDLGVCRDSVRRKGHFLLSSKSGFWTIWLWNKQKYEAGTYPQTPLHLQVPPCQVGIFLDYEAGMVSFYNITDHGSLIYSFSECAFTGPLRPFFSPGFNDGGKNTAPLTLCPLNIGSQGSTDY

Legend:
[1] = target: TRIM21, endogenous (human (endogenous in PANC-1)) (UniProt P19474); experiment: co-IP; endogenous proteins in PANC-1 (and L3.7) lysate, IP lysis buffer, antibody overnight at 4 °C, Protein A/G PLUS-Agarose, immunoblot; also in cells with CD73 overexpressed or knocked down, with Snail changed, or treated with diclofenac
[2] = target: TRIM21, endogenous (human (endogenous in PANC-1)) (UniProt P19474); experiment: proximity ligation; Duolink In Situ Red Starter Kit Mouse/Rabbit in PANC-1 and BxPC-3 cells; mouse IgG as negative control
[3] = target: ectopically expressed TRIM21 (co-IP of Figure S6B) (UniProt P19474); experiment: co-IP; ectopically expressed CD73 and TRIM21 (Figure S6B); cells and tags not given
GST-TRIM21, recombinant = GST-TRIM21, recombinant (UniProt P19474); experiment: pull-down; Pierce GST Protein Interaction Pull Down Kit; GST or GST-TRIM21 on glutathione agarose, incubated with recombinant CD73 or Snail, eluted, immunoblot; both purified
[4] = target: HA tagged TRIM21, wild type (HEK-293T) (UniProt P19474); experiment: co-IP; HA tagged TRIM21 or its deletion mutants co-transduced with His-CD73 or Flag-Snail into HEK-293T cells, immunoprecipitated with an anti-HA antibody, Western blot

binding [1]: binds
binding [2]: binds
B1: CD73 (NT5E, ecto-5-nucleotidase), endogenous (protein, UniProt P21589 27-549)
chain: WELTILHTNDVHSRLEQTSEDSSKCVNASRCMGGVARLFTKVQQIRRAEPNVLLLDAGDQYQGTIWFTVYKGAEVAHFMNALRYDAMALGNHEFDNGVEGLIEPLLKEAKFPILSANIKAKGPLASQISGLYLPYKVLPVGDEVVGIVGYTSKETPFLSNPGTNLVFEDEITALQPEVDKLKTLNVNKIIALGHSGFEMDKLIAQKVRGVDVVVGGHSNTFLYTGNPPSKEVPAGKYPFIVTSDDGRKVPVVQAYAFGKYLGYLKIEFDERGNVISSHGNPILLNSSIPEDPSIKADINKWRIKLDNYSTQELGKTIVYLDGSSQSCRFRECNMGNLICDAMINNNLRHTDEMFWNHVSMCILNGGGIRSPIDERNNGTITWENLAAVLPFGGTFDLVQLKGSTLKKAFEHSVHRYGQSTGEFLQVGGIHVVYDLSRKPGDRVVKLDVLCTKCRVPSYDPLKMDEVYKVILPNFLANGGDGFQMIKDELLRHDSGDQDINVVSTYISKMKVIYPAVEGRIKFS

binding [3]: binds
B2: ectopically expressed CD73 (co-IP of Figure S6B) (protein, UniProt P21589 27-549)
chain: WELTILHTNDVHSRLEQTSEDSSKCVNASRCMGGVARLFTKVQQIRRAEPNVLLLDAGDQYQGTIWFTVYKGAEVAHFMNALRYDAMALGNHEFDNGVEGLIEPLLKEAKFPILSANIKAKGPLASQISGLYLPYKVLPVGDEVVGIVGYTSKETPFLSNPGTNLVFEDEITALQPEVDKLKTLNVNKIIALGHSGFEMDKLIAQKVRGVDVVVGGHSNTFLYTGNPPSKEVPAGKYPFIVTSDDGRKVPVVQAYAFGKYLGYLKIEFDERGNVISSHGNPILLNSSIPEDPSIKADINKWRIKLDNYSTQELGKTIVYLDGSSQSCRFRECNMGNLICDAMINNNLRHTDEMFWNHVSMCILNGGGIRSPIDERNNGTITWENLAAVLPFGGTFDLVQLKGSTLKKAFEHSVHRYGQSTGEFLQVGGIHVVYDLSRKPGDRVVKLDVLCTKCRVPSYDPLKMDEVYKVILPNFLANGGDGFQMIKDELLRHDSGDQDINVVSTYISKMKVIYPAVEGRIKFS

binding (GST-TRIM21, recombinant): binds
B3: His-CD73, recombinant (GST pull-down) (protein, UniProt P21589 27-549)
chain: WELTILHTNDVHSRLEQTSEDSSKCVNASRCMGGVARLFTKVQQIRRAEPNVLLLDAGDQYQGTIWFTVYKGAEVAHFMNALRYDAMALGNHEFDNGVEGLIEPLLKEAKFPILSANIKAKGPLASQISGLYLPYKVLPVGDEVVGIVGYTSKETPFLSNPGTNLVFEDEITALQPEVDKLKTLNVNKIIALGHSGFEMDKLIAQKVRGVDVVVGGHSNTFLYTGNPPSKEVPAGKYPFIVTSDDGRKVPVVQAYAFGKYLGYLKIEFDERGNVISSHGNPILLNSSIPEDPSIKADINKWRIKLDNYSTQELGKTIVYLDGSSQSCRFRECNMGNLICDAMINNNLRHTDEMFWNHVSMCILNGGGIRSPIDERNNGTITWENLAAVLPFGGTFDLVQLKGSTLKKAFEHSVHRYGQSTGEFLQVGGIHVVYDLSRKPGDRVVKLDVLCTKCRVPSYDPLKMDEVYKVILPNFLANGGDGFQMIKDELLRHDSGDQDINVVSTYISKMKVIYPAVEGRIKFS

binding [4]: binds
B4: His-CD73 (HEK-293T) (protein, UniProt P21589 27-549)
chain: WELTILHTNDVHSRLEQTSEDSSKCVNASRCMGGVARLFTKVQQIRRAEPNVLLLDAGDQYQGTIWFTVYKGAEVAHFMNALRYDAMALGNHEFDNGVEGLIEPLLKEAKFPILSANIKAKGPLASQISGLYLPYKVLPVGDEVVGIVGYTSKETPFLSNPGTNLVFEDEITALQPEVDKLKTLNVNKIIALGHSGFEMDKLIAQKVRGVDVVVGGHSNTFLYTGNPPSKEVPAGKYPFIVTSDDGRKVPVVQAYAFGKYLGYLKIEFDERGNVISSHGNPILLNSSIPEDPSIKADINKWRIKLDNYSTQELGKTIVYLDGSSQSCRFRECNMGNLICDAMINNNLRHTDEMFWNHVSMCILNGGGIRSPIDERNNGTITWENLAAVLPFGGTFDLVQLKGSTLKKAFEHSVHRYGQSTGEFLQVGGIHVVYDLSRKPGDRVVKLDVLCTKCRVPSYDPLKMDEVYKVILPNFLANGGDGFQMIKDELLRHDSGDQDINVVSTYISKMKVIYPAVEGRIKFS
